According to PMC11681593:

Target: T1, thioredoxin-interacting protein (TXNIP), mouse heart (mouse (endogenous in heart tissue)) (UniProt Q8BG60)
T1 sequence: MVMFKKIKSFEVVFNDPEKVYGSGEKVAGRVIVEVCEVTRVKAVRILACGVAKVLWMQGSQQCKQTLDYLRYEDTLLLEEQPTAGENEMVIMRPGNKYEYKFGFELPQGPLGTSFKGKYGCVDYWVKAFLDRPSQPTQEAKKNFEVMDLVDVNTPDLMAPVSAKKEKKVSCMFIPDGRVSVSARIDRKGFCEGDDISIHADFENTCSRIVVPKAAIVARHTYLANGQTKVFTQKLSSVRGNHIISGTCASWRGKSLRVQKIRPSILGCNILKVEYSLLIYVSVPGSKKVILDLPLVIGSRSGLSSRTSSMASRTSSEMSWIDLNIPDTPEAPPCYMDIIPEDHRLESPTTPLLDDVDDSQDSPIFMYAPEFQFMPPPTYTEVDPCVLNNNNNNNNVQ
Assay: co-IP; endogenous co-immunoprecipitation from mouse heart tissue lysate with TXNIP antibody, immunoblot for NLRP3, TXNIP and thioredoxin; mice on ND or HFD for 24 wks, with rAAV9-cTnT-null or rAAV9-cTnT-TXNIP (Figure S5I), or with NS or MitoTEMPO (Figure 7I)

For thioredoxin (TRX), mouse heart, the binding was “binds”.

No constants are given. Whether binding was seen depends on the method and setting. Binding seen in cells or lysates may run through a third protein. Binding calls can cover weak binding; strength is not graded here.
